PubChem BioAssay AID504804, Drosophila RNAi Screening Center | 2011
The screen tested about 19,000 reagents; shown is a random part of those that have a named target and a result. Of all reagents, 47 (0.25%) got an active call. 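Signals are raw, not normalised; exact z-scores behind calls not deposited; actives needed confirmation, so some wells reaching 2 SD are inactive.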 Reagents against one gene are numbered here.

Screen: 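Fly genes whose loss lessens doxorubicin-driven cell death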 (primary screen)
Cell system: Drosophila Kc cells
Reagents: long dsRNA against Drosophila genes, 0.5 µg dsRNA per well
Duration: 96 h (48 h knock-down, then 48 h drug)
Conditions: doxorubicin 5 µg/ml for 48 h, added 48 h after dsRNA
Read-out: 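Viability measured as cellular ATP by luminescence after 48 h knock-down then 48 h doxorubicin at 5 µg/ml; unnormalised plate counts for each replicate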
Direction: raw ATP luminescence: higher = more viable cells, protection from doxorubicin
Active means: 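Active when both duplicate wells lie at least 2 SD above the plate mean and protection is confirmed by rescreening and independent dsRNAs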

Tsp2A
- raw ATP luminescence, replicate 1: 31910
- raw ATP luminescence, replicate 2: 45730
- Call: inactive

CG1213
- raw ATP luminescence, replicate 1: 58497
- raw ATP luminescence, replicate 2: 58500
- Call: inactive

SNCF
- raw ATP luminescence, replicate 1: 88093
- raw ATP luminescence, replicate 2: 72033
- Call: inactive

fend #1
- raw ATP luminescence, replicate 1: 2.01e5
- raw ATP luminescence, replicate 2: 2.10e5
- Call: inactive

fend #2
- raw ATP luminescence, replicate 1: 3.04e5
- raw ATP luminescence, replicate 2: 2.44e5
- Call: inactive

CG13126
- raw ATP luminescence, replicate 1: 44863
- raw ATP luminescence, replicate 2: 49323
- Call: inactive

CG8665
- raw ATP luminescence, replicate 1: 52533
- raw ATP luminescence, replicate 2: 64600
- Call: inactive

for #1
- raw ATP luminescence, replicate 1: 1.70e5
- raw ATP luminescence, replicate 2: 1.63e5
- Call: inactive

for #2
- raw ATP luminescence, replicate 1: 1.05e5
- raw ATP luminescence, replicate 2: 76650
- Call: inactive

CG42579
- raw ATP luminescence, replicate 1: 2.74e5
- raw ATP luminescence, replicate 2: 2.82e5
- Call: inactive

4 entries from above in another layout:
gene	reagent	raw ATP luminescence, replicate 1	raw ATP luminescence, replicate 2	Call
CG1213	1	58497	58500	inactive
SNCF	1	88093	72033	inactive
fend	1	2.01e5	2.10e5	inactive
fend	2	3.04e5	2.44e5	inactive

More entries:
Psa
- raw ATP luminescence, replicate 1: 63547
- raw ATP luminescence, replicate 2: 61773
- Call: inactive

Pgant3
- raw ATP luminescence, replicate 1: 69903
- raw ATP luminescence, replicate 2: 65883
- Call: inactive

Sgs5
- raw ATP luminescence, replicate 1: 98200
- raw ATP luminescence, replicate 2: 1.10e5
- Call: inactive

CG5921 #1
- raw ATP luminescence, replicate 1: 1.95e5
- raw ATP luminescence, replicate 2: 2.28e5
- Call: inactive

CG5921 #2
- raw ATP luminescence, replicate 1: 50920
- raw ATP luminescence, replicate 2: 55890
- Call: inactive

eIF3e
- raw ATP luminescence, replicate 1: 46247
- raw ATP luminescence, replicate 2: 44000
- Call: inactive

Eb1
- raw ATP luminescence, replicate 1: 38433
- raw ATP luminescence, replicate 2: 65277
- Call: inactive

Cht6 #1
- raw ATP luminescence, replicate 1: 3.81e5
- raw ATP luminescence, replicate 2: 3.10e5
- Call: inactive

Cht6 #2
- raw ATP luminescence, replicate 1: 1.45e5
- raw ATP luminescence, replicate 2: 1.59e5
- Call: inactive

Cht6 #3
- raw ATP luminescence, replicate 1: 4.10e5
- raw ATP luminescence, replicate 2: 3.85e5
- Call: inactive

Rcd4
- raw ATP luminescence, replicate 1: 40533
- raw ATP luminescence, replicate 2: 50263
- Call: inactive

CG13630
- raw ATP luminescence, replicate 1: 42363
- raw ATP luminescence, replicate 2: 42840
- Call: inactive

Secp43
- raw ATP luminescence, replicate 1: 26660
- raw ATP luminescence, replicate 2: 27913
- Call: inactive

CG13097
- raw ATP luminescence, replicate 1: 1.08e5
- raw ATP luminescence, replicate 2: 89657
- Call: inactive

LRR
- raw ATP luminescence, replicate 1: 47493
- raw ATP luminescence, replicate 2: 81210
- Call: inactive

CG2157
- raw ATP luminescence, replicate 1: 3.84e5
- raw ATP luminescence, replicate 2: 3.70e5
- Call: inactive

CG32281
- raw ATP luminescence, replicate 1: 38540
- raw ATP luminescence, replicate 2: 44967
- Call: inactive

CG32365 #1
- raw ATP luminescence, replicate 1: 80520
- raw ATP luminescence, replicate 2: 84540
- Call: inactive

CG32365 #2
- raw ATP luminescence, replicate 1: 43553
- raw ATP luminescence, replicate 2: 52293
- Call: inactive

CG32365 #3
- raw ATP luminescence, replicate 1: 47073
- raw ATP luminescence, replicate 2: 48527
- Call: inactive
